These are yes or no findings as the source states them, for the method shown. For some of these results: Binding seen in cells or lysates may run through a third protein. Some results given as binding are weak or reduced against the parent protein; the word gives no strength. For some of these results: Where a sequence is shown, tags or fusion partners need not be part of it. Values belong to the molecule of their own block, whether it stands above or below them.
Key:
[1] = target: T1, FLAG-tagged EEPD1, full-length (WT) (UniProt Q7L9B9); experiment: co-IP; full-length and truncated FLAG-tagged EEPD1 expressed in HEK-293 cells, immunoprecipitated with FLAG antibody, blot probed for Exo1; from 300 ug of total cell lysate
T1 sequence: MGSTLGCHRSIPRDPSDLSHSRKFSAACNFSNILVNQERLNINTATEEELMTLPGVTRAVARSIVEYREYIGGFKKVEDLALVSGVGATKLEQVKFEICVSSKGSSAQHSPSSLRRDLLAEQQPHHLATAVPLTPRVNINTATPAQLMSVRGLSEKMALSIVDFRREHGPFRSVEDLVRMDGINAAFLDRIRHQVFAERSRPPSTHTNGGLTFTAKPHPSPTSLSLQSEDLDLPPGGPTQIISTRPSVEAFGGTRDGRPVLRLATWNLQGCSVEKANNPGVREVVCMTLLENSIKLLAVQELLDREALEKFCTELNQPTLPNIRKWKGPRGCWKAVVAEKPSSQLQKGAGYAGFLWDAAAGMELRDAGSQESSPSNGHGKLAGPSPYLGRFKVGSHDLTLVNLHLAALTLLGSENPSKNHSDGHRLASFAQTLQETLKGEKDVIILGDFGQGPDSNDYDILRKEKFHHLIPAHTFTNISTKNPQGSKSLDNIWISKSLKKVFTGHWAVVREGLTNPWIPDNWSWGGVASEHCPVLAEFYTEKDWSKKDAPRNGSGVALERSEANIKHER

Sequences of proteins named here, by UniProt entry; tags and fusion partners are left off.
UniProt Q9UQ84: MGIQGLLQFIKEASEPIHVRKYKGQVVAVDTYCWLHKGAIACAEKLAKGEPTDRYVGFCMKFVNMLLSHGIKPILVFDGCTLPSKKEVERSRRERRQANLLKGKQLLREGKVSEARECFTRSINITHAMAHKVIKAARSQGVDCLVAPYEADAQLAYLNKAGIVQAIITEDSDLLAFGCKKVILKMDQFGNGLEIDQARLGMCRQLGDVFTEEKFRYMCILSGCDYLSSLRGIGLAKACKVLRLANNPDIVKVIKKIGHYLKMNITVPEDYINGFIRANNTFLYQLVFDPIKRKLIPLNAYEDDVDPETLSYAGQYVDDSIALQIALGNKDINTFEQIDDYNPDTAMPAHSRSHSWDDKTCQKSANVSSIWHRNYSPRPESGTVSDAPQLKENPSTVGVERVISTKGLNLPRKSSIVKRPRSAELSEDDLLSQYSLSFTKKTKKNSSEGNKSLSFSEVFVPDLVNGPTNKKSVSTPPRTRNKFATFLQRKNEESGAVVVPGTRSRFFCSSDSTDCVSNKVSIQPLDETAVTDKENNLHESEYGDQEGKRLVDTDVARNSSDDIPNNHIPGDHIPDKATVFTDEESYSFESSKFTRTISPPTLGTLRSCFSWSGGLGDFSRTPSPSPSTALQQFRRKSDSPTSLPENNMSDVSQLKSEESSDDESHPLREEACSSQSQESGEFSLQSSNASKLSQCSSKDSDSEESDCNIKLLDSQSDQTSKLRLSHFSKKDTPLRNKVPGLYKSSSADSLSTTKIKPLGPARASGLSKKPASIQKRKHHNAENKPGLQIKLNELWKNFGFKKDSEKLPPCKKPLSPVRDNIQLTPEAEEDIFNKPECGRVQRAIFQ

[2] = target: V5-tagged Exo1, full-length (WT) (UniProt Q9UQ84); experiment: co-IP; full-length and truncated V5-tagged Exo1 expressed in HEK-293 cells, immunoprecipitated with V5 antibody, blot probed for EEPD1; from 300 ug of total cell lysate
[3] = target: V5-tagged Exo1, full-length (WT) (UniProt Q9UQ84); experiment: co-IP; in vitro: recombinant FLAG-tagged EEPD1 and V5-tagged Exo1, 200 ng of each, incubated together for 30 min in the buffer without Triton X-100; both purified
[4] = target: V5-tagged Exo1, full-length (WT) (UniProt Q9UQ84); experiment: co-IP; EEPD1/D181A and Exo1; initial immunoprecipitation as for panel B (300 ug of total cell lysate)

B2: FLAG-tagged EEPD1, full-length (WT) (enzyme, UniProt Q7L9B9 1-569)
chain: MGSTLGCHRSIPRDPSDLSHSRKFSAACNFSNILVNQERLNINTATEEELMTLPGVTRAVARSIVEYREYIGGFKKVEDLALVSGVGATKLEQVKFEICVSSKGSSAQHSPSSLRRDLLAEQQPHHLATAVPLTPRVNINTATPAQLMSVRGLSEKMALSIVDFRREHGPFRSVEDLVRMDGINAAFLDRIRHQVFAERSRPPSTHTNGGLTFTAKPHPSPTSLSLQSEDLDLPPGGPTQIISTRPSVEAFGGTRDGRPVLRLATWNLQGCSVEKANNPGVREVVCMTLLENSIKLLAVQELLDREALEKFCTELNQPTLPNIRKWKGPRGCWKAVVAEKPSSQLQKGAGYAGFLWDAAAGMELRDAGSQESSPSNGHGKLAGPSPYLGRFKVGSHDLTLVNLHLAALTLLGSENPSKNHSDGHRLASFAQTLQETLKGEKDVIILGDFGQGPDSNDYDILRKEKFHHLIPAHTFTNISTKNPQGSKSLDNIWISKSLKKVFTGHWAVVREGLTNPWIPDNWSWGGVASEHCPVLAEFYTEKDWSKKDAPRNGSGVALERSEANIKHER
binding [3]: binds

B3: FLAG-tagged EEPD1 D181A (enzyme, UniProt Q7L9B9 1-569)
chain: MGSTLGCHRSIPRDPSDLSHSRKFSAACNFSNILVNQERLNINTATEEELMTLPGVTRAVARSIVEYREYIGGFKKVEDLALVSGVGATKLEQVKFEICVSSKGSSAQHSPSSLRRDLLAEQQPHHLATAVPLTPRVNINTATPAQLMSVRGLSEKMALSIVDFRREHGPFRSVEDLVRMAGINAAFLDRIRHQVFAERSRPPSTHTNGGLTFTAKPHPSPTSLSLQSEDLDLPPGGPTQIISTRPSVEAFGGTRDGRPVLRLATWNLQGCSVEKANNPGVREVVCMTLLENSIKLLAVQELLDREALEKFCTELNQPTLPNIRKWKGPRGCWKAVVAEKPSSQLQKGAGYAGFLWDAAAGMELRDAGSQESSPSNGHGKLAGPSPYLGRFKVGSHDLTLVNLHLAALTLLGSENPSKNHSDGHRLASFAQTLQETLKGEKDVIILGDFGQGPDSNDYDILRKEKFHHLIPAHTFTNISTKNPQGSKSLDNIWISKSLKKVFTGHWAVVREGLTNPWIPDNWSWGGVASEHCPVLAEFYTEKDWSKKDAPRNGSGVALERSEANIKHER
binding [4]: binds

Other lines, results leading:

binding [1]: binds
Molecule: native Exo1 (endogenous, HEK-293) (from UniProt Q9UQ84 1-846) (enzyme)

binding [2]: binds
B1: native EEPD1 (endogenous, HEK-293) (enzyme, UniProt Q7L9B9 1-569)
chain: MGSTLGCHRSIPRDPSDLSHSRKFSAACNFSNILVNQERLNINTATEEELMTLPGVTRAVARSIVEYREYIGGFKKVEDLALVSGVGATKLEQVKFEICVSSKGSSAQHSPSSLRRDLLAEQQPHHLATAVPLTPRVNINTATPAQLMSVRGLSEKMALSIVDFRREHGPFRSVEDLVRMDGINAAFLDRIRHQVFAERSRPPSTHTNGGLTFTAKPHPSPTSLSLQSEDLDLPPGGPTQIISTRPSVEAFGGTRDGRPVLRLATWNLQGCSVEKANNPGVREVVCMTLLENSIKLLAVQELLDREALEKFCTELNQPTLPNIRKWKGPRGCWKAVVAEKPSSQLQKGAGYAGFLWDAAAGMELRDAGSQESSPSNGHGKLAGPSPYLGRFKVGSHDLTLVNLHLAALTLLGSENPSKNHSDGHRLASFAQTLQETLKGEKDVIILGDFGQGPDSNDYDILRKEKFHHLIPAHTFTNISTKNPQGSKSLDNIWISKSLKKVFTGHWAVVREGLTNPWIPDNWSWGGVASEHCPVLAEFYTEKDWSKKDAPRNGSGVALERSEANIKHER

From publication PMC5314175
